{"sequences": {"note": "By UniProt entry, the sequences of proteins in these tests, tags left out. Where a name states a change or a piece, a line headed by the entry shows the natural chain unless it says otherwise.", "UniProt P05455": "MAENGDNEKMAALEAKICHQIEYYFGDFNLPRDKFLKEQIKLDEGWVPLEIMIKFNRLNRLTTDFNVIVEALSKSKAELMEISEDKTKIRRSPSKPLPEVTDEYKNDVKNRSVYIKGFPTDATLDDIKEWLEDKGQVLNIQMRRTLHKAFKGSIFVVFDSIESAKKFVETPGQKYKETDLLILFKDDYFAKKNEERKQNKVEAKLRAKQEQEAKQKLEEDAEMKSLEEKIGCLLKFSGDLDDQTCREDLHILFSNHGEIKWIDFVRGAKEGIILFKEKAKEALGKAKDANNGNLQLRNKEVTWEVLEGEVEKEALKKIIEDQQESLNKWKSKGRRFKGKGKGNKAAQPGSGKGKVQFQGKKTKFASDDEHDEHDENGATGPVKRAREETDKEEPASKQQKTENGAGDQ", "UniProt O95602, whole entry": "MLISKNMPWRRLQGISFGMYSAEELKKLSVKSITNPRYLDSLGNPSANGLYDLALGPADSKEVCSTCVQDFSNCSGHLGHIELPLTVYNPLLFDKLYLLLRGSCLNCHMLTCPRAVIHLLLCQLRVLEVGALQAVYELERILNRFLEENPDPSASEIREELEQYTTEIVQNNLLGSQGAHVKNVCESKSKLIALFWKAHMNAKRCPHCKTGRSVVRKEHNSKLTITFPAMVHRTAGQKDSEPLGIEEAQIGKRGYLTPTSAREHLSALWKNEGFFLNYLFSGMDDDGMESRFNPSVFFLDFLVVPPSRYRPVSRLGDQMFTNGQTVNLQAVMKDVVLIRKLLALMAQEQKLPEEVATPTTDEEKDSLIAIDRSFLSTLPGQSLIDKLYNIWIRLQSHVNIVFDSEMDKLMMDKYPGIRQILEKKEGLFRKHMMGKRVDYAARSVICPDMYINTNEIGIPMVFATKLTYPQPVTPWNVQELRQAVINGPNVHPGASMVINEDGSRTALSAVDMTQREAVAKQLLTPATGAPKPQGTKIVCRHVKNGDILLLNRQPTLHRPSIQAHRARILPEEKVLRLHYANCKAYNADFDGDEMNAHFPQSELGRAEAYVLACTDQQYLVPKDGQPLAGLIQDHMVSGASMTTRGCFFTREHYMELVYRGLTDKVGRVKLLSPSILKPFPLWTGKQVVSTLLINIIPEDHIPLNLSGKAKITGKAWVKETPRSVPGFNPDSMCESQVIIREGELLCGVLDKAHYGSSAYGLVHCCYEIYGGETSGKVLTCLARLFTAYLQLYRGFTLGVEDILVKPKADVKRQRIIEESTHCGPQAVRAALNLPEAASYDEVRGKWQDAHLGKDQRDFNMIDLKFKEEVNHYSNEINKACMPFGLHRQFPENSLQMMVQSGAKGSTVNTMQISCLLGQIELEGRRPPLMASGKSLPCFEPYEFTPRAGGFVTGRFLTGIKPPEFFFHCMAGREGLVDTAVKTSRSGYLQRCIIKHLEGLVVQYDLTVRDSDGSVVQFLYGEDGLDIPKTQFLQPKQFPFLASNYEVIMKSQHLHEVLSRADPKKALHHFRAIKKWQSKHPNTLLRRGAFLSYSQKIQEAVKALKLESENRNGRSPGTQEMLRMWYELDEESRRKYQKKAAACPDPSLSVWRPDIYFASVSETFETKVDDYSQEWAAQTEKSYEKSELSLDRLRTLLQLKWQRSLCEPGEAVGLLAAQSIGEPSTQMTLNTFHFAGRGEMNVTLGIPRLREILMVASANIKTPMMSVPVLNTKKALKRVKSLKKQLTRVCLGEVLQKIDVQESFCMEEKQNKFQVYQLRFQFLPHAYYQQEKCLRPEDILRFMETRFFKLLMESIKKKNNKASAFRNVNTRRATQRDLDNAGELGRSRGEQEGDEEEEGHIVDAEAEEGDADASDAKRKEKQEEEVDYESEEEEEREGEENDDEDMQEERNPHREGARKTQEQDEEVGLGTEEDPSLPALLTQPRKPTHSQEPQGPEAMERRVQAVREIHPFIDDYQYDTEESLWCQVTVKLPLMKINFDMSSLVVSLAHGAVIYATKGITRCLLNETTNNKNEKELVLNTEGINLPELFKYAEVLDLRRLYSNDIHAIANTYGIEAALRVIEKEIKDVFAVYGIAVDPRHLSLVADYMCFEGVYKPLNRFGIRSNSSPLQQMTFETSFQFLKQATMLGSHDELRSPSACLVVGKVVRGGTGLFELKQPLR", "UniProt O94826, whole entry": "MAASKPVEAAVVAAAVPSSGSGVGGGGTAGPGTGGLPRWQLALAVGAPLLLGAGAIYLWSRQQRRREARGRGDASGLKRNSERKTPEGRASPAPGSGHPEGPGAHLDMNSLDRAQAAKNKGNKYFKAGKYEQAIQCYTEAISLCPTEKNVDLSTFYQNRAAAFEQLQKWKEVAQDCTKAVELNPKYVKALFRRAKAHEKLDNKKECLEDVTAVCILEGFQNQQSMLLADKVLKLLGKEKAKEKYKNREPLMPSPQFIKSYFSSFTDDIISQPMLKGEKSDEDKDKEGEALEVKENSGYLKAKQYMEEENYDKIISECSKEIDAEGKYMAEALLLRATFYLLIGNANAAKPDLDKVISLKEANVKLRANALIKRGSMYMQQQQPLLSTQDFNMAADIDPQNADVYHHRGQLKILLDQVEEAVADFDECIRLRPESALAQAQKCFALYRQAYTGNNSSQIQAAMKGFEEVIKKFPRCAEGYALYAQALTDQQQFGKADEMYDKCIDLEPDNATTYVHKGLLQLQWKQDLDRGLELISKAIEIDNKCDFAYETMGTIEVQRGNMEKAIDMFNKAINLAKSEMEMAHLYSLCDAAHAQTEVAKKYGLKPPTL", "UniProt O94905": "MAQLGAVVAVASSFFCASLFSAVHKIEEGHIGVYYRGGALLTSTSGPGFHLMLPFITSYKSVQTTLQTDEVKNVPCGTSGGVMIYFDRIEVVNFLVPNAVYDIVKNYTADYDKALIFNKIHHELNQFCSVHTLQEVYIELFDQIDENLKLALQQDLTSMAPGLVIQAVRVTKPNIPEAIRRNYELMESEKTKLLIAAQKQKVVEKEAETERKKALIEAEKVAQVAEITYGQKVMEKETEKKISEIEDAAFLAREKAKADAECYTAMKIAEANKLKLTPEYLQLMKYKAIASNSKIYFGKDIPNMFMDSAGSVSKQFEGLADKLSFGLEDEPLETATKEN", "UniProt P05423": "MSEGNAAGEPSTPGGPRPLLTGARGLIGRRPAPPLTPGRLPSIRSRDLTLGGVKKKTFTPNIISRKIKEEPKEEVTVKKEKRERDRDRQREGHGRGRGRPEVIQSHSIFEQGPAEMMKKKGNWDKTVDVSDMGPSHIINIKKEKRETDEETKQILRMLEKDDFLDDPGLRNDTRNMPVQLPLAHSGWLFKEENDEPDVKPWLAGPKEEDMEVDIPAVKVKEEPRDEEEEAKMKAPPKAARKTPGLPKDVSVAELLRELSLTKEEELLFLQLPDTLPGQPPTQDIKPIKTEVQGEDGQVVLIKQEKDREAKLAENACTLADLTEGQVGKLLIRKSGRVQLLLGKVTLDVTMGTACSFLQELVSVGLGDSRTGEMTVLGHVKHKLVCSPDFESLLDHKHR", "UniProt O94885": "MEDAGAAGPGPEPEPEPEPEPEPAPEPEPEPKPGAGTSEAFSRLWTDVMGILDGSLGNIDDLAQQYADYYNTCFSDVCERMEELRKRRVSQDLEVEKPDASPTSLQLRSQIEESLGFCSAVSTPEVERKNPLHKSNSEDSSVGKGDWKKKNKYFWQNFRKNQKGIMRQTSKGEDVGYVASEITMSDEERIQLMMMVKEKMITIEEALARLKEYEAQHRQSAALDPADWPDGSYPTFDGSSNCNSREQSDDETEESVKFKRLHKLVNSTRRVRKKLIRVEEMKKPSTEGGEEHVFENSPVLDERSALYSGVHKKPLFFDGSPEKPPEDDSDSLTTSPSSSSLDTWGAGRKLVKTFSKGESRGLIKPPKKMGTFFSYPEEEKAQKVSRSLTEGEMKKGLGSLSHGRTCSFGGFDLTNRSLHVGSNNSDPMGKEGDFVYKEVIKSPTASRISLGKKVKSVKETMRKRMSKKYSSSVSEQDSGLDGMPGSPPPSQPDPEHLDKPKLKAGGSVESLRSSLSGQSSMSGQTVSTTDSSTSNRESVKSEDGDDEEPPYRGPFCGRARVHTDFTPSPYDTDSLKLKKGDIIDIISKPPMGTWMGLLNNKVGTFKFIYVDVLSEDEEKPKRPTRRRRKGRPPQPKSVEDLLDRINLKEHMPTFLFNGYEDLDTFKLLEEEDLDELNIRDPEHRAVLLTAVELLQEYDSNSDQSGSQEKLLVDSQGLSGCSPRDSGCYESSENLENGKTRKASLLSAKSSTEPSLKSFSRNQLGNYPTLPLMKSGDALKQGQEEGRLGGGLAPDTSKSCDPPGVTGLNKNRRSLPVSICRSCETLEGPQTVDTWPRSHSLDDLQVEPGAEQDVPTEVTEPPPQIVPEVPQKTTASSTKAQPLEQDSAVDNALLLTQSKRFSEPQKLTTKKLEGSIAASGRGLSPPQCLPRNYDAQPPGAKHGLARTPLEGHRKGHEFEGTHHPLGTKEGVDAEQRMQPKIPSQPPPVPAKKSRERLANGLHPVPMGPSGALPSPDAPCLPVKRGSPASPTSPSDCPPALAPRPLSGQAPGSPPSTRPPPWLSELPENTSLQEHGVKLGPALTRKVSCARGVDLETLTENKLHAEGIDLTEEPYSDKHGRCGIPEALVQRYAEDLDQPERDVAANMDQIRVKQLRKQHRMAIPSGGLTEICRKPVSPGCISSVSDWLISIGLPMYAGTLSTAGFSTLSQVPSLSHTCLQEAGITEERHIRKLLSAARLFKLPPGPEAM", "UniProt O94763, whole entry": "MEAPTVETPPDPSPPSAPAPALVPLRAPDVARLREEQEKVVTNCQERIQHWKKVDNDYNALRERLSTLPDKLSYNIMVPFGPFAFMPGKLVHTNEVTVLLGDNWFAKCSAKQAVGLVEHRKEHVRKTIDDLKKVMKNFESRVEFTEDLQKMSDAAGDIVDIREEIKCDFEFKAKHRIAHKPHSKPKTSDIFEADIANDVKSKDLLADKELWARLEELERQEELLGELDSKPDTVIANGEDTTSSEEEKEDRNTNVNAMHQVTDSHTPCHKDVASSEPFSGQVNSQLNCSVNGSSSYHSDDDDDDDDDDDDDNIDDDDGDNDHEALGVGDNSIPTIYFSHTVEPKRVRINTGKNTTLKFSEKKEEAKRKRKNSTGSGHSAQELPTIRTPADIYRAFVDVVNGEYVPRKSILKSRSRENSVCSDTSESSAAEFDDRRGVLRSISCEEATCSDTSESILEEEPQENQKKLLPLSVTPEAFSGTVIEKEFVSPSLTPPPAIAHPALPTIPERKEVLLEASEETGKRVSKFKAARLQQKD", "UniProt O95251, whole entry": "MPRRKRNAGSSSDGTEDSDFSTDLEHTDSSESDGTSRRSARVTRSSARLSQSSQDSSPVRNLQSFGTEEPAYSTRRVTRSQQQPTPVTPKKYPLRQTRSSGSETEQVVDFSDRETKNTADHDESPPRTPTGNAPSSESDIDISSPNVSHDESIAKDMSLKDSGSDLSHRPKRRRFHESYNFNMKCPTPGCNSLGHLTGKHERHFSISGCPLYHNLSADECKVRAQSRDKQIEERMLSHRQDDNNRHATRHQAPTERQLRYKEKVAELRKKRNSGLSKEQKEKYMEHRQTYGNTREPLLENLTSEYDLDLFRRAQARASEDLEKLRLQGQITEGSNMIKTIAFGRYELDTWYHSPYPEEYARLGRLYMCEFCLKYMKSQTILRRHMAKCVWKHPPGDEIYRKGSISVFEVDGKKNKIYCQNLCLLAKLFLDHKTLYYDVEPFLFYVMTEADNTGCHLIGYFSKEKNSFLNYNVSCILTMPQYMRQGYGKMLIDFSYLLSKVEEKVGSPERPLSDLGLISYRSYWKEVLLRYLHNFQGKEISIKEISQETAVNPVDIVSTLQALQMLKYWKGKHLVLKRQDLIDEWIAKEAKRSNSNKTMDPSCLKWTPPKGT", "UniProt O95169, whole entry": "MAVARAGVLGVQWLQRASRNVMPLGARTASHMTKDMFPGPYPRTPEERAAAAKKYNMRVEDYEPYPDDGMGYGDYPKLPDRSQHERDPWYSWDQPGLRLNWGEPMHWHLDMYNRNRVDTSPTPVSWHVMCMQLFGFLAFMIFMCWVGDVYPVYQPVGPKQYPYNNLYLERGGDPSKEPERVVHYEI", "UniProt O95571": "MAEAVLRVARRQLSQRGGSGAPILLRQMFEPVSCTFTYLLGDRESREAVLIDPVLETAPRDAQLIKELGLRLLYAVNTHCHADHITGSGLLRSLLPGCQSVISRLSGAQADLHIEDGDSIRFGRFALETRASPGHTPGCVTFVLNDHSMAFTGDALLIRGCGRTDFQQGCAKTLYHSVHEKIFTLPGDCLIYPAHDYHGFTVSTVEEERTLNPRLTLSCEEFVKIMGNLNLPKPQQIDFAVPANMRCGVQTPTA", "UniProt O75964": "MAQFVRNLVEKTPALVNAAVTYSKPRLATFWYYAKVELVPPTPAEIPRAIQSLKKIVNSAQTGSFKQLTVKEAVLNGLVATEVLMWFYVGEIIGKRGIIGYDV", "UniProt O75884": "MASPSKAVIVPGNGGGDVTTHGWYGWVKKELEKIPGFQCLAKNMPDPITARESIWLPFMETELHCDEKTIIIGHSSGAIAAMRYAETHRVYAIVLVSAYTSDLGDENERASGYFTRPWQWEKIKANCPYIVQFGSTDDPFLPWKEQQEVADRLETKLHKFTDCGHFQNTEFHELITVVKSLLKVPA"}, "source": "the supplement of paper PMC12595434", "about": "“Development of retinoid nuclear receptor pathway antagonists through targeting aldehyde dehydrogenase 1A3” (iScience, 2025)", "note": "The list shows a part of the results. Single values of this set are uncertain.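 Tm was set to 64 °C where no melting was found, and many curves are irregular.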"}
{"compound": "CCc1cnccc1C(=O)Nc1cc2c(cc1F)NC(=O)CC2", "test": "melting temperature shift (DMSO Tm minus MBE1-treated Tm) in cellular thermal proteome profiling; higher = less thermal stabilization by MBE1 (negative = stabilized by MBE1)", "conditions": "A375; MBE1 concentration: 100 nM", "units": {"melting temperature shift": "°C"}}
{"target": "TYMS (UniProt P04818)", "melting temperature shift": -0.579}
{"target": "SBF1 (UniProt O95248)", "melting temperature shift": 0.342}
{"target": "UniProt P00167", "melting temperature shift": -1.25}
{"target": "LUC7L3 (UniProt O95232)", "melting temperature shift": -1.4}
{"target": "SLU7 (UniProt O95391)", "melting temperature shift": 0.0542}
{"target": "ATE1 (UniProt O95260)", "melting temperature shift": 0.495}
{"target": "PCNT (UniProt O95613)", "melting temperature shift": 0.841}
{"target": "SSB (UniProt P05455)", "melting temperature shift": -0.324}
{"target": "UBR5 (UniProt O95071)", "melting temperature shift": -1.04}
{"target": "CEP152 (UniProt O94986)", "melting temperature shift": -1.53}
{"target": "WDR47 (UniProt O94967)", "melting temperature shift": 0.0805}
{"target": "POLR1A (UniProt O95602)", "melting temperature shift": -1.24}
{"target": "TOMM70 (UniProt O94826)", "melting temperature shift": 0.36}
{"target": "ERLIN2 (UniProt O94905)", "melting temperature shift": -0.495}
{"target": "POLR3D (UniProt P05423)", "melting temperature shift": -0.08}
{"target": "UniProt O95070", "melting temperature shift": -0.584}
{"target": "HSPA4L (UniProt O95757)", "melting temperature shift": -0.293}
{"target": "UniProt P04921", "melting temperature shift": 3.56}
{"target": "UniProt O75928", "melting temperature shift": -1.49}
{"target": "LSM8 (UniProt O95777)", "melting temperature shift": -6.18}
{"target": "UniProt O94885", "melting temperature shift": -1.21}
{"target": "BAG4 (UniProt O95429)", "melting temperature shift": -0.698}
{"target": "URI1 (UniProt O94763)", "melting temperature shift": -1.25}
{"target": "CAT (UniProt P04040)", "melting temperature shift": -1.75}
{"target": "KAT7 (UniProt O95251)", "melting temperature shift": -0.032}
{"target": "NDUFB8 (UniProt O95169)", "melting temperature shift": -1.25}
{"target": "AHSA1 (UniProt O95433)", "melting temperature shift": 0.69}
{"target": "ETHE1 (UniProt O95571)", "melting temperature shift": -0.0472}
{"target": "UniProt O94875", "melting temperature shift": 0.354}
{"target": "RSL1D1 (UniProt O76021)", "melting temperature shift": -0.396}
{"target": "USP1 (UniProt O94782)", "melting temperature shift": 0.174}
{"target": "UniProt O94864", "melting temperature shift": -0.768}
{"target": "PAPSS2 (UniProt O95340)", "melting temperature shift": -0.0469}
{"target": "ACSL3 (UniProt O95573)", "melting temperature shift": 0.287}
{"target": "ATP5L (UniProt O75964)", "melting temperature shift": -2.85}
{"target": "MBD3 (UniProt O95983)", "melting temperature shift": -0.943}
{"target": "ATG7 (UniProt O95352)", "melting temperature shift": 1.07}
{"target": "RBBP9 (UniProt O75884)", "melting temperature shift": 2.64}
{"compound": "CCc1cnccc1C(=O)Nc1cc2c(cc1F)NC(=O)CC2", "test": "melting temperature shift (DMSO Tm minus MBE1-treated Tm) in cellular thermal proteome profiling; higher = less thermal stabilization by MBE1 (negative = stabilized by MBE1)", "conditions": "A375; MBE1 concentration: 1 uM", "units": {"melting temperature shift": "°C"}}
{"target": "TYMS (UniProt P04818)", "melting temperature shift": -0.704}
{"target": "SBF1 (UniProt O95248)", "melting temperature shift": -0.58}
{"target": "UniProt P00167", "melting temperature shift": -0.348}
{"target": "LUC7L3 (UniProt O95232)", "melting temperature shift": -0.694}
{"target": "SLU7 (UniProt O95391)", "melting temperature shift": -0.801}
{"target": "ATE1 (UniProt O95260)", "melting temperature shift": 0.305}
{"target": "PCNT (UniProt O95613)", "melting temperature shift": -0.971}
{"target": "SSB (UniProt P05455)", "melting temperature shift": 0.232}
{"target": "UBR5 (UniProt O95071)", "melting temperature shift": -1.09}
{"target": "CEP152 (UniProt O94986)", "melting temperature shift": 2.75}
{"target": "WDR47 (UniProt O94967)", "melting temperature shift": 0.335}
{"target": "POLR1A (UniProt O95602)", "melting temperature shift": -0.984}
{"target": "TOMM70 (UniProt O94826)", "melting temperature shift": 0.0672}
{"target": "ERLIN2 (UniProt O94905)", "melting temperature shift": -0.409}
{"target": "POLR3D (UniProt P05423)", "melting temperature shift": -0.0612}
{"target": "UniProt O95070", "melting temperature shift": -1.75}
{"target": "HSPA4L (UniProt O95757)", "melting temperature shift": -0.733}
{"target": "UniProt P04921", "melting temperature shift": -4.8}
{"target": "UniProt O75928", "melting temperature shift": 0.00611}
{"target": "LSM8 (UniProt O95777)", "melting temperature shift": 1.82}
{"target": "UniProt O94885", "melting temperature shift": -0.244}
{"target": "BAG4 (UniProt O95429)", "melting temperature shift": 0.463}
{"target": "URI1 (UniProt O94763)", "melting temperature shift": 0.0794}
{"target": "CAT (UniProt P04040)", "melting temperature shift": -2.02}
{"target": "KAT7 (UniProt O95251)", "melting temperature shift": -0.224}
{"target": "NDUFB8 (UniProt O95169)", "melting temperature shift": -1.79}
{"target": "AHSA1 (UniProt O95433)", "melting temperature shift": -0.128}
{"target": "ETHE1 (UniProt O95571)", "melting temperature shift": -0.189}
{"target": "UniProt O94875", "melting temperature shift": 1.02}
{"target": "RSL1D1 (UniProt O76021)", "melting temperature shift": 0.0604}
{"target": "USP1 (UniProt O94782)", "melting temperature shift": -0.577}
{"target": "UniProt O94864", "melting temperature shift": -0.644}
{"target": "PAPSS2 (UniProt O95340)", "melting temperature shift": 0.55}
{"target": "ACSL3 (UniProt O95573)", "melting temperature shift": 0.36}
{"target": "ATP5L (UniProt O75964)", "melting temperature shift": -2.68}
{"target": "MBD3 (UniProt O95983)", "melting temperature shift": -0.128}
{"target": "ATG7 (UniProt O95352)", "melting temperature shift": 0.69}
{"target": "RBBP9 (UniProt O75884)", "melting temperature shift": -0.0134}
